# Record: PubChem BioAssay AID504744 (Drosophila RNAi Screening Center, 2011)
# Test: 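Identify dsRNAs that increase or decrease phospho-dAkt after insulin treatment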 (primary screen)
# Cells: Drosophila Kc167 cells
# Reagent: long dsRNA against Drosophila genes, 250 ng dsRNA per well of a 384-well plate
# Timing: 3 days of knock-down, then overnight serum-free starvation before stimulation
# Treatment: bovine insulin at 387 nM for 10 minutes after 12 h without serum
# Detection: 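In-cell antibody fluorescence for phospho-dAkt in each well over DNA-dye signal, with log2 residuals expressed as z-scores adjusted for cell count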
# Hit rule: 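Under insulin, a gene counts as a hit if the average z-score of two replicates lies above 2.5 or below -2.5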
# In all, the deposit lists about 23,000 reagents; below is an unselected part of those with a known target gene and a result. Of all reagents, 98 (0.43%) were called active. 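Only hit calls are given; the phospho-dAkt signals, z-scores and hit direction were not deposited.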 Reagents against one gene are numbered here. Names joined by + are all predicted targets of the reagent. No sequences are given here.
gene,reagent,call
BBS4,1,inactive
GstZ2,1,inactive
CG17019,1,inactive
Proc,1,inactive
Syx18,1,inactive
Klp67A,1,inactive
Cyp6u1,1,inactive
fend,1,inactive
fend,2,inactive
LysB,1,inactive
ash1,1,inactive
Polr3K + Tcs1,1,inactive
CG8248,1,inactive
CG13544,1,inactive
CG13455,1,inactive
CG14424,1,inactive
Best3,1,inactive
Pino,1,inactive
Pino,2,inactive
Uba1,1,inactive
CG8726,1,inactive
CG3088,1,inactive
mge,1,inactive
CG5447,1,inactive
ND-ACP,1,inactive
CG43317,1,inactive
Bdp1,1,inactive
emb,1,inactive
rha,1,inactive
alien,1,inactive
Orc4,1,inactive
CG13069,1,inactive
CG14194,1,inactive
CG14826,1,inactive
CG9147,1,inactive
mkg-p + Tpt,1,inactive
alt,1,inactive
CG2698,1,inactive
fs(1)h,1,inactive

Entries above whose gene name starts with P or p:
gene,reagent,call
Proc,1,inactive
Polr3K + Tcs1,1,inactive
Pino,1,inactive
Pino,2,inactive

Additional entries follow:
gene,reagent,call
Sce,1,inactive
CG15207 (retired record),1,inactive
CG15207 (retired record),2,inactive
PIP82,1,inactive
CG34247,1,inactive
Oat,1,inactive
CG30472,1,inactive
CG15406,1,inactive
bves,1,inactive
bves,2,inactive
bves,3,inactive
CG15536,1,inactive
CG15536,2,inactive
CG7231,1,inactive
CG30323,1,inactive
CG16978,1,inactive
Ggt-1,1,inactive
Arl1,1,inactive
CG5157,1,inactive
Ir7c,1,inactive
ATPsynCF6,1,inactive
Skeletor (retired record),1,inactive
Skeletor (retired record),2,inactive
CG42284,1,inactive
CG42284,2,inactive
Phb2,1,inactive
Nepl11,1,inactive
CG2082,1,inactive
CG4537,1,inactive
CG9945,1,inactive
CG15539,1,inactive
hec,1,inactive
CG17224,1,inactive
CG7252,1,inactive
CG7252,2,inactive
beat-Ib,1,inactive
CG32579,1,inactive
Sam-S,1,inactive
CG8708,1,inactive
CG4338,1,inactive
CG34112,1,inactive
bero,1,inactive
Lsd-1,1,inactive
unc,1,inactive
Tig,1,inactive
CG17593,1,inactive
CG32599,1,inactive
SPoCk,1,inactive
SPoCk,2,inactive
SPoCk,3,inactive
SPoCk,4,inactive
wrapper,1,inactive
PI31,1,inactive
dare,1,inactive
CG3491,1,inactive
CG13239,1,inactive
RtcB,1,inactive
SCAR,1,inactive
ball,1,inactive
l(2)41Ab,1,inactive
e(y)3,1,inactive
Usp10,1,inactive
Usp10,2,inactive
CG31913,1,inactive
Nlg2,1,inactive
CG7542,1,inactive
Hayan,1,inactive
Hayan,2,inactive
